This is an account of results in the supplement of paper PMC10849652.

The chains behind the UniProt entries cited, without tags or fusion partners. Where a name states a change or a piece, a line headed by the entry shows the natural chain unless it says otherwise.
UniProt Q9Y6P5: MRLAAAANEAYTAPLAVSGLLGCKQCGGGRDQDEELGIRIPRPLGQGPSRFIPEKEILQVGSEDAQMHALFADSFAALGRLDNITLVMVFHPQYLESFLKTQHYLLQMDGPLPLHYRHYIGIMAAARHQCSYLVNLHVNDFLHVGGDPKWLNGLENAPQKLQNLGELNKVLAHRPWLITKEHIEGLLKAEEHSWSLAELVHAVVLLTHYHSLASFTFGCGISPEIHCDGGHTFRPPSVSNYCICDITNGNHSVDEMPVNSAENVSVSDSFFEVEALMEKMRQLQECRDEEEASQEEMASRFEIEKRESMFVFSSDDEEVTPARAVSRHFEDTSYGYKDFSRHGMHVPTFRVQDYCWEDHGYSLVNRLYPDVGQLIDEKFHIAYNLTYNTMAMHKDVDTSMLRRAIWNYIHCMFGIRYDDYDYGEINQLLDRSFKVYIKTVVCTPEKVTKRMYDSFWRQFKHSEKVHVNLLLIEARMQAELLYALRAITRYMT
UniProt Q8N196: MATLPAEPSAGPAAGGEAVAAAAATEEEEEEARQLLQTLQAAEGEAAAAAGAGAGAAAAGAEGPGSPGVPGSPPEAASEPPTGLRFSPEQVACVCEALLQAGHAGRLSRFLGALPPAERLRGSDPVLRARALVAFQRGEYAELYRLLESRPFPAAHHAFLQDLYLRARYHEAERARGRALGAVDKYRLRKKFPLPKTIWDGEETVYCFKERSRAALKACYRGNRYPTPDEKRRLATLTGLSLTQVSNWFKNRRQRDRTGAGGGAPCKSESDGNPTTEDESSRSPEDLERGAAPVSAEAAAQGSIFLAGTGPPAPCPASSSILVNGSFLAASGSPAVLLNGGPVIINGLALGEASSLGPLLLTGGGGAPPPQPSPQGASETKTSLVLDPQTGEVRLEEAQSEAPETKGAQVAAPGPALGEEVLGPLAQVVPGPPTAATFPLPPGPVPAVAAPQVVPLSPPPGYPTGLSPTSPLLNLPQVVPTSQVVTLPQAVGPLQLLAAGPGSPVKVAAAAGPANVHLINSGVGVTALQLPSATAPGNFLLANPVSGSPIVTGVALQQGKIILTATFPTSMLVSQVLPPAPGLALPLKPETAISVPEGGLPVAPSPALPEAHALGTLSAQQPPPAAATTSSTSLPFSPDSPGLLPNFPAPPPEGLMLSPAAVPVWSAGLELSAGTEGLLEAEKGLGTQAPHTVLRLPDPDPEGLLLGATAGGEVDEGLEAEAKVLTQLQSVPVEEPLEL
UniProt Q9HAT2: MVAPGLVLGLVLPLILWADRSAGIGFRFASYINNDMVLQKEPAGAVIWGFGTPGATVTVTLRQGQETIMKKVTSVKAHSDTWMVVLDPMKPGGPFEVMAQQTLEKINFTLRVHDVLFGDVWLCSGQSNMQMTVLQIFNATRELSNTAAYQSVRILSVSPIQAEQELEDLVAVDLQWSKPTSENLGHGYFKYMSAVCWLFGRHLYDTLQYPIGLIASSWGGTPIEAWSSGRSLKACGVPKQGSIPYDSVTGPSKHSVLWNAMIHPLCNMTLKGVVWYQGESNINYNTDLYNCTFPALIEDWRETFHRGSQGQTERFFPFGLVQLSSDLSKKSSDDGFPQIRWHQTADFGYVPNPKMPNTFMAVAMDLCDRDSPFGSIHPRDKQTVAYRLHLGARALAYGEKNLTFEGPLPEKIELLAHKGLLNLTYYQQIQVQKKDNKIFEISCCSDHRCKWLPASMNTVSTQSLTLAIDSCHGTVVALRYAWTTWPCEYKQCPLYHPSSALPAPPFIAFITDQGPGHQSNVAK
UniProt Q9UIU6: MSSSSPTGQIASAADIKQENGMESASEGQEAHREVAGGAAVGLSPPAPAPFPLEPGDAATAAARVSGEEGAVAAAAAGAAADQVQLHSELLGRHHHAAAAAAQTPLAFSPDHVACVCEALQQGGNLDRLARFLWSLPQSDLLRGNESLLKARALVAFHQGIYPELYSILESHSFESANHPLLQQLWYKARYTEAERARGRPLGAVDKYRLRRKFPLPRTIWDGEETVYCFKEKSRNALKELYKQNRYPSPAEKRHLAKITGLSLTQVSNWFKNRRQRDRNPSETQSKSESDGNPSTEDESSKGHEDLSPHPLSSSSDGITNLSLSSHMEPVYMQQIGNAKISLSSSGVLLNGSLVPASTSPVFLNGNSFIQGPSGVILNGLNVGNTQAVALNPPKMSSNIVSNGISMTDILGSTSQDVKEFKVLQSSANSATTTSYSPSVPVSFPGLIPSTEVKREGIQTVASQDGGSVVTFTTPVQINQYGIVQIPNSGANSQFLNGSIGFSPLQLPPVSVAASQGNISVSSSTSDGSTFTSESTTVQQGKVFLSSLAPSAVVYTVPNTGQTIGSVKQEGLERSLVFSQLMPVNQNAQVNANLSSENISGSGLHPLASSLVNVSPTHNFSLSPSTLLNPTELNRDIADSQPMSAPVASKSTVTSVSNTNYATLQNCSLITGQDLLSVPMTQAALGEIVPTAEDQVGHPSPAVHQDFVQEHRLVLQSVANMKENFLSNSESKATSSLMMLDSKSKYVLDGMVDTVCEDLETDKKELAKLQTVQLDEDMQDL

The list shows a part of the results.

Compound in one assay: C1=CC=C(C=C1)[C@H](COC2=CC3=C(C=C2)NC(=O)N3)NC(=O)C4=CC=CN(C4=O)CC5=CC(=C(C=C5)F)F
Briefly: log2 fold change, soluble protein after heating vs DMSO (PISA); higher = thermal stabilisation; K562 lysate, 10 uM; active = over 0.2 and 3.5 SD of the protein, either way, in both replicates (recomputed). Summed up:
(§1)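 A 30 min treatment with 10 μM compound was applied to crude K562 extract at 1 mg/mL protein in PBS pH 7.4 with 1 mM MgCl2. Heating for 3 min spanned 48°C-58°C, after which aliquots were pooled, adjusted to 0.5% NP-40 at 4°C and spun at 21,000xg for 90 min. TMTpro 16plex LC-MS/MS of the supernatant, with channel sums equalised, gave values recorded as log-two fold change in thermal stability against solvent controls, from duplicates.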
On to SESN1 isoform 2 (UniProt Q9Y6P5), for which the log2 fold change is inactive: -0.002.

Take SH2B1 (UniProt Q9NRF2): the log2 fold change was inactive: 0.198.

In the case of SIX5 (UniProt Q8N196), the log2 fold change was inactive: -0.011.

On to SIAE (UniProt Q9HAT2), for which the log2 fold change is inactive: 0.01.

With SF3B2 (UniProt E9PJ04), the log2 fold change is inactive: -0.013.

Take SIX4 (UniProt Q9UIU6): the log2 fold change is inactive: 0.109.

Compound in the next assay: CC1=C(SC2=C1C(=N[C@H](C3=NN=C(N32)C)CC(=O)N)C4=CC=C(C=C4)Cl)C
Described as above. Summed up:
as §1
With SESN1 isoform 2 (UniProt Q9Y6P5), the log2 fold change is inactive: 0.021.

For the target SH2B1 (UniProt Q9NRF2), the log2 fold change was inactive: 0.332.

As for SIX5 (UniProt Q8N196), the log2 fold change was inactive: 0.034.

For the target SIAE (UniProt Q9HAT2), the log2 fold change was inactive: -0.004.

Turning to SF3B2 (UniProt E9PJ04), the log2 fold change was inactive: 0.045.

Take SIX4 (UniProt Q9UIU6): the log2 fold change was inactive: -0.058.
